Values from PubChem BioAssay AID504808 (Drosophila RNAi Screening Center, 2011)
The deposit covers about 21,000 reagents; shown is an unselected part of those with a known target gene and a result. In the full data, 18 (0.084%) are marked active. 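Raw counts without plate normalisation, one of two replicates; the ratio scores behind the calls were not deposited.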 The record does not give: the amount of reagent, the time to read-out.

Assay: 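Chromatin factors that keep E2F targets switched off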 (primary screen)
System: Drosophila S2 cells
Reagent: long dsRNA against Drosophila genes
Read-out: 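Firefly luciferase driven by E2F sites, normalised to Renilla luciferase on the same minimal promoter, measured by plate reader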
Scale: E2F firefly: higher = more E2F reporter activity; Renilla normaliser: higher = more normaliser reporter signal
Hit rule: 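Called active if the normalised E2F reporter went up by over 50%; the cutoff is arbitrary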

RpS10a (Ribosomal protein S10a): E2F firefly, rep 1 = 1809; Renilla normaliser, rep 1 = 892; Outcome = inactive
CR11023 (pseudo): E2F firefly, rep 1 = 1.39e5; Renilla normaliser, rep 1 = 5551; Outcome = inactive
fmt (fiery mountain): E2F firefly, rep 1 = 74907; Renilla normaliser, rep 1 = 3032; Outcome = inactive
NimC3 (Nimrod C3): E2F firefly, rep 1 = 90048; Renilla normaliser, rep 1 = 3831; Outcome = inactive
CG12684: E2F firefly, rep 1 = 1.07e5; Renilla normaliser, rep 1 = 5601; Outcome = inactive
CG5916: E2F firefly, rep 1 = 79210; Renilla normaliser, rep 1 = 4201; Outcome = inactive
not (non-stop): E2F firefly, rep 1 = 70687; Renilla normaliser, rep 1 = 4219; Outcome = inactive
atlas: E2F firefly, rep 1 = 1.05e5; Renilla normaliser, rep 1 = 3982; Outcome = inactive
Tig (Tiggrin): E2F firefly, rep 1 = 1.40e5; Renilla normaliser, rep 1 = 5502; Outcome = inactive
CG2681: E2F firefly, rep 1 = 1701; Renilla normaliser, rep 1 = 812; Outcome = inactive
UQCR-Q (Ubiquinol-cytochrome c reductase ubiquinone-binding protein): E2F firefly, rep 1 = 1.69e5; Renilla normaliser, rep 1 = 7287; Outcome = inactive
CG14605: E2F firefly, rep 1 = 1.31e5; Renilla normaliser, rep 1 = 6508; Outcome = inactive
